Experimental data: PubChem BioAssay AID1224826 (NIAID, 2016)
In all, the deposit lists about 17,000 reagents; below is a random part of them. Of all reagents, about 1,110 (6.6%) were called active. 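Active means lowered or raised reporter signal; replicate intensities are raw and not normalised per plate.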 Further read-outs or replicates are left out here.

Aim: 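Knock-downs that raise or lower Tnf reporter signal after endotoxin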 (primary screen)
Cell system: RAW264.7 G9 macrophages from mouse bearing reporters for p65 (GFP) and the Tnf promoter (mCherry)
Knock-down reagent: siRNA pool against mouse genes, 100 nM
Time to read-out: 16 h of LPS stimulation, after 2 days of siRNA transfection
Conditions: bacterial lipopolysaccharide (Salmonella minnesota R595), 10 ng/ml
Measurement: 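Nuclear mCherry signal of the Tnf promoter reporter measured by imaging after background removal, scaled to each plate median and turned into robust z-scores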
Reading the numbers: Tnf reporter robust z-score: higher = stronger Tnf promoter reporter signal after LPS
Hit rule: 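a well counts as active at a score of -1.3 or below (Tlr4 knock-down control median) or above 3 (raised signal); controls and wells holding fewer than 50 cells are excluded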
Calls: active = Tnf reporter clearly lowered or raised; inactive = no clear change in Tnf reporter

The opening 3 records, to show the layout:
gene | Tnf reporter robust z-score | fewer than 50 cells in well | outcome
Slc9d1 | -0.43 | enough cells in well | inactive
Ddx19a | 0.67 | enough cells in well | inactive
Keap1 | – | fewer than 50 cells per well; well left out of calls | inactive

The listing, from the first entry:
gene | Tnf reporter robust z-score | fewer than 50 cells in well | outcome
Slc9d1 | -0.43 | enough cells in well | inactive
Ddx19a | 0.67 | enough cells in well | inactive
Keap1 | – | fewer than 50 cells per well; well left out of calls | inactive
Cacna1h | – | fewer than 50 cells per well; well left out of calls | inactive
4930579K19Rik | 0.45 | enough cells in well | inactive
Rack1 | -0.5 | enough cells in well | inactive
Pawr | -1.21 | enough cells in well | inactive
Psmd8 | -1.66 | enough cells in well | active
Heyl | -0.27 | enough cells in well | inactive
Elk4 | 0.71 | enough cells in well | inactive
Pcdhga7 | 0.48 | enough cells in well | inactive
Abcb1a | -1.42 | enough cells in well | active
Tmem145 | -0.28 | enough cells in well | inactive
Ift56 | 0.1 | enough cells in well | inactive
Ube2t | 0.2 | enough cells in well | inactive
Aldoart2 | -0.53 | enough cells in well | inactive
Stc2 | 2.97 | enough cells in well | inactive
Rdh19 | -0.43 | enough cells in well | inactive
Snx16 | – | fewer than 50 cells per well; well left out of calls | inactive
Uncx | – | fewer than 50 cells per well; well left out of calls | inactive
Lars2 | 1.35 | enough cells in well | inactive
Reps2 | -0.94 | enough cells in well | inactive
Sema3b | -1.27 | enough cells in well | inactive
Tlcd4 | 0.33 | enough cells in well | inactive
Or5bh3 | 0.49 | enough cells in well | inactive
Itsn2 | -0.31 | enough cells in well | inactive
Fam168b | 5.73 | enough cells in well | active
Hpvc-ps (retired record) | -1.12 | enough cells in well | inactive
Rnd1 | 0.8 | enough cells in well | inactive
Tmem59 | -2.01 | enough cells in well | active
Abcb8 | – | fewer than 50 cells per well; well left out of calls | inactive
Pip4k2b | -0.42 | enough cells in well | inactive
Ifi30 | -1.42 | enough cells in well | active
Ddx6 | 0.05 | enough cells in well | inactive
Tgfa | -0.41 | enough cells in well | inactive
BC002059 | -0.28 | enough cells in well | inactive
Ccm2 | -1.05 | enough cells in well | inactive
Oxnad1 | 0.08 | enough cells in well | inactive
Kat5 | 0.39 | enough cells in well | inactive
Nudt9 | -0.53 | enough cells in well | inactive
